PubChem BioAssay AID720505, Drosophila RNAi Screening Center – 2013
The deposit covers about 20,000 reagents; shown is a random part of those with a known target gene and a result. Of all reagents, about 2,100 (10%) were called active. 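Raw plate signals without normalisation; calls rest on control-based scores that were not deposited; replicate 2 separates called from uncalled poorly.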 Reagents against one gene are numbered here. A plus sign joins genes that one reagent is predicted to hit. Not given: the amount of reagent, the time to read-out.

Purpose: 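Genes needed for store-operated calcium entry in fly cells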 (primary screen)
Cell system: Drosophila S2R+ cells
Reagents: long dsRNA against Drosophila genes
Treatment: thapsigargin (2 µM) in calcium-free buffer to empty internal stores, then 2 mM calcium added back
Detection: 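Fluo-4 signal in 384-well plates read on a FLIPR after thapsigargin (2 µM, calcium-free) store depletion and 2 mM calcium add-back; unnormalised mean endpoint per well; screen run twice, selected wells retested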
Scale: calcium signal and retest calcium signal: higher = more calcium entry after store depletion
Active means: 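About 1500 genes called as lowering calcium entry, by varying amounts, judged against per-plate control wells with STIM1 as positive and Rho1 as negative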
Meaning of the calls: active = called as lowering calcium entry; inactive = not called

gene,reagent no.,"calcium signal, replicate 1","calcium signal, replicate 2","retest calcium signal, replicate 1","retest calcium signal, replicate 2",Call
Obp83b (Odorant-binding protein 83b),1,114,172,,,inactive
CG31102,1,250,106,,,inactive
CG10182,1,142,90.1,,,inactive
heix (heixuedian),1,76.9,85.4,,,inactive
aft (adrift),1,150,124,,,inactive
CG14400,1,178,106,,,inactive
dec (defective chorion),1,255,73.8,,,inactive
dec (defective chorion),2,139,121,,,inactive
hay (haywire),1,81.6,74.6,,,inactive
G9a,1,134,105,,,inactive
Setx (Senataxin),1,76.4,79.6,,,inactive
fon (fondue),1,101,109,,,inactive
CG34436,1,175,171,,,inactive
CG14339,1,302,170,,,inactive
nanos,1,219,128,,,inactive
CG5521,1,128,146,,,active
v (vermilion),1,98.3,74.5,,,inactive
CG34187 (retired record) + Trpm,1,99.2,128,,,inactive
CG3436,1,50.3,69.3,,,active
atilla,1,98.9,161,,,inactive
TER94 (Transitional endoplasmic reticulum 94),1,114,145,,,inactive
"E(spl)malpha-BFM (Enhancer of split malpha, Bearded family member)",1,175,159,,,inactive
CG9706,1,116,102,,,inactive
c12.1,1,84.4,88,,,inactive
CG5267,1,167,174,,,inactive
Baldspot,1,113,172,,,inactive
CG13075,1,124,197,,,inactive
mRpL21 (mitochondrial ribosomal protein L21),1,74.4,164,,,inactive
Usp32 (Ubiquitin specific protease 32),1,97.5,128,,,inactive
"betaNACtes6 (Nascent-associated complex beta-subunit-like, testis 6)",1,132,202,,,inactive
otu (ovarian tumor),1,236,123,,,inactive
Wbp2 (WW domain binding protein 2),1,162,83.5,,,inactive
CG17237,1,188,138,,,inactive
Aatf (Apoptosis antagonizing transcription factor),1,126,96.5,,,inactive
CG33098,1,118,188,,,inactive
Bruce (BIR repeat containing ubiquitin-conjugating enzyme),1,167,84.2,,,inactive
CG14610 + asRNA:CR42738,1,86.5,145,,,inactive
PVRAP (PVR adaptor protein),1,82.4,68.7,,,inactive
PVRAP (PVR adaptor protein),2,40.4,63.6,,,active
CG10514,1,238,124,,,inactive
"Lamtor5 (Late endosomal/lysosomal adaptor, MAPK and MTOR activator 5)",1,147,190,,,inactive
Nf-YA (Nuclear factor Y-box A),1,41.8,74,,,active
Nf-YA (Nuclear factor Y-box A),2,120,181,,,inactive
CARPB (Carbonic anhydrase-related protein B),1,121,109,98.3,77.9,inactive
CARPB (Carbonic anhydrase-related protein B),2,49.8,55.3,,,active
eIF2Balpha (eukaryotic translation initiation factor 2B subunit alpha),1,136,134,,,inactive
DJ-1alpha,1,76.9,222,,,inactive
IntS11 (Integrator 11),1,99.5,137,,,inactive
skd (skuld),1,71.8,75,,,active
kin17,1,81.2,130,,,inactive
CG14369,1,142,176,,,inactive
Ppn (Papilin),1,158,140,,,inactive
NimC3 (Nimrod C3),1,98.5,119,,,inactive
NimC3 (Nimrod C3),2,98.2,98.2,,,inactive
Odc2 (Ornithine decarboxylase 2),1,128,79.8,,,inactive
GluRIID (Glutamate receptor IID),1,228,198,,,inactive
CG7514,1,105,71.1,,,inactive
CG7264,1,62.1,78.6,,,active
RfC4 (Replication factor C subunit 4),1,66.3,142,,,active
CG15696,1,254,118,,,inactive
CG43777 + CG43776 + CG43775,1,111,142,,,inactive
Dpp10 (Dipeptidyl peptidase 10),1,86.2,164,,,inactive
Dpp10 (Dipeptidyl peptidase 10),2,137,110,,,inactive
Taf7 (TBP-associated factor 7),1,115,202,,,inactive
Nle (Notchless),1,112,120,,,inactive
spag (spaghetti),1,104,139,,,inactive
IntS1 (Integrator 1),1,197,97.8,,,inactive
"Dcps (Decapping enzyme, scavenger)",1,116,101,,,inactive
CG9123,1,53.5,95,,,active
CG42758,1,85.8,119,,,inactive
mRpL15 (mitochondrial ribosomal protein L15),1,144,143,,,inactive
Kaz (Katazuke),1,145,80.1,,,inactive
CBP (sarcoplasmic calcium-binding protein),1,171,128,,,inactive
CG30274,1,103,132,,,inactive
Ran-like,1,81,161,,,active
T48 (Transcript 48),1,160,167,,,inactive
"Polr2L (RNA polymerase II, I and III subunit L)",1,235,171,,,inactive
fred (friend of echinoid),1,71.2,207,,,active
fred (friend of echinoid),2,156,90.5,68.1,88,inactive
fred (friend of echinoid),3,173,74.4,,,inactive
fred (friend of echinoid),4,153,80.6,,,inactive
fred (friend of echinoid),5,98.6,195,,,inactive
thetaTry (thetaTrypsin),1,132,165,,,inactive

Looked up above:
CG9123, Call → active
For “calcium signal, replicate 1”, CG14400 shows 178
Wbp2 (WW domain binding protein 2), calcium signal, replicate 1: 162
Under “calcium signal, replicate 2”, fred (friend of echinoid) #5 reads 195
T48 (Transcript 48), calcium signal, replicate 2 = 167
Result of CG14610 + asRNA:CR42738 in “Call”: inactive
